Assay results taken from patent publication US20260098054A1 (priority 2022, published 2026).
Strings that start with PEPTIDE1 are HELM notation: dots part the residues, brackets hold end groups and non-standard residues.

Test: general procedure: Fmoc solid-phase peptide synthesis; rink amide resin (CS Bio); HATU/DIPEA
Settings: conjugation step

Substance	conjugation yield
PEPTIDE1{R.G.D.[dF].[Lys_isoindolyl]}|CHEM1{[DM1]}$PEPTIDE1,PEPTIDE1,1:R1-5:R2|PEPTIDE1,CHEM1,5:R3-1:R1$$$V2.0	51% isolated yield
PEPTIDE1{R.G.D.[dF].[Pen]}|CHEM1{[IsoindolylEtS]}|CHEM2{[DM1]}$PEPTIDE1,PEPTIDE1,1:R1-5:R2|PEPTIDE1,CHEM1,5:R3-1:R1|CHEM1,CHEM2,1:R2-1:R1$$$V2.0	46% isolated yield
